Literature values, collected in patent publication US20220287943A1, “METHOD FOR TREATING KERATIN MATERIAL, COMPRISING THE APPLICATION OF AN ORGANIC C1-C6-ALKOXY-SILANE AND AN AMINO ACID AND/OR AMINO ACID DERIVATIVE” (Henkel AG & Co. KGaA, priority 2019, published 2022).

Conditions: about 25° C.

solubility in water: more than 20 % by weight
Compound: CCN(Cc1cccc(S(=O)(=O)[O-])c1)c1ccc(C(=C2C=CC(=[N+](CC)Cc3cccc(S(=O)(=O)[O-])c3)C=C2)c2ccccc2S(=O)(=O)[O-])cc1.[Na+].[Na+] [Acid Blue 9]
